Experimental findings from publication PMC3649978 are described below.

In this assay the target is Halo-tagged p104-CT-V5 (p104 residues 470-871) (Theileria annulata). Kind of assay: pull-down; Halo-tagged p104 fragments (C-terminal V5) linked to Halolink resin; about 500 µg lysate of COS-7 cells (untransfected, or expressing EB1-GFP fragments) incubated overnight; 5 washes with 500 mM NaCl and 0.01% tween-20; elution by TEV protease; immunoblot with anti-EB1, anti-GFP and anti-V5; only the target purified. On the technique in general: In western blotting, separated proteins are transferred to a membrane and probed.

No constants are given. Whether binding was seen depends on the method and setting. In cells and extracts the contact can be indirect. Binding calls can cover weak binding; strength is not graded here. Sequences can lack the tags named with a protein.

B1: EB1_(1–133)-GFP (mouse EB1 residues 1-133) (domain or fragment, UniProt Q61166 1-133)
chain: MAVNVYSTSVTSDNLSRHDMLAWINESLQLNLTKIEQLCSGAAYCQFMDMLFPGSIALKKVKFQAKLEHEYIQNFKILQAGFKRMGVDKIIPVDKLVKGKFQDNFEFVQWFKKFFDANYDGKEYDPVAARQGQ
On to B1, for which the binding result is “no binding”.

B2: EB1_(125–268)-GFP (mouse EB1 residues 125-268) (domain or fragment, UniProt Q61166 125-268)
chain: DPVAARQGQETAVAPSLVAPALSKPKKPLGSSTAAPQRPIATQRTTAAPKAGPGMVRKNPGVGNGDDEAAELMQQVKVLKLTVEDLEKERDFYFGKLRNIELICQENEGENDPVLQRIVDILYATDEGFVIPDEGGPQEEQEEY
Take B2: the binding entry is “binds”.
